PMC12884772, “Macrophagic Sclerostin Loop2‐ApoER2 Interaction Required by Sclerostin for Cardiovascular Protective Action” (Advanced Science, 2025)
Results are given in words; binding and its absence hold for the method and conditions named. In cells and extracts the contact can be indirect. Some binding calls cover weakened binding; strength is not graded here.

Chains of the proteins cited; added tags and fusions are not shown. Lines headed by an entry give the natural chain unless they say otherwise; changes in a name come on top. A line that says so, or that is headed by a name, gives the form on record, which may keep a tag or linker. Residues count along the entry.
full-length His-sclerostin (not stated (recombinant human and mouse sclerostin used in the paper)) (Q99P68, residues 24-211): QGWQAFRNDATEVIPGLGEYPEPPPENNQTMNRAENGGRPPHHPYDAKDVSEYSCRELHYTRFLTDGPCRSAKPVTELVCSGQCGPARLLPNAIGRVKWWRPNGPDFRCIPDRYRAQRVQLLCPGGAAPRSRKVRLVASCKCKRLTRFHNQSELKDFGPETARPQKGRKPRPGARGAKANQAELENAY
SOST^loop2m (I94A, G95A, R96A, K98A, W99A) (Q99P68, form named): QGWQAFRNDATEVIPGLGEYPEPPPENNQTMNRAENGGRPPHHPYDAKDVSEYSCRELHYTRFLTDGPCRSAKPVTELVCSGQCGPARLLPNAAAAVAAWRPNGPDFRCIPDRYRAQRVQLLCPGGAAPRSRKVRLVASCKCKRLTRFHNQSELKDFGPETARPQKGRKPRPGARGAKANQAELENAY
SOST-S5 (V97A, K98A, W99A) (Q99P68, form named): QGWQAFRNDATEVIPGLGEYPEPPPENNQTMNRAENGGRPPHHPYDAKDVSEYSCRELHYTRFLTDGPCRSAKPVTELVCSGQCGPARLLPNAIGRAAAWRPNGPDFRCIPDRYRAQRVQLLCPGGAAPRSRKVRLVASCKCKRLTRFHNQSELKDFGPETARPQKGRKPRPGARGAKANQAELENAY
SOST-S4 (I94A, G95A, R96A) (Q99P68, form named): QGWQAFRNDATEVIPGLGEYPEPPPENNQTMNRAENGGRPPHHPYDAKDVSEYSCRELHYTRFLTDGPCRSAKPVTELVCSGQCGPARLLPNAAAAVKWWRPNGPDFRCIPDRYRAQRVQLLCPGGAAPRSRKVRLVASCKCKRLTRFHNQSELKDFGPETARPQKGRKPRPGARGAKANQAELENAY
UniProt Q924X6, residues 29-996: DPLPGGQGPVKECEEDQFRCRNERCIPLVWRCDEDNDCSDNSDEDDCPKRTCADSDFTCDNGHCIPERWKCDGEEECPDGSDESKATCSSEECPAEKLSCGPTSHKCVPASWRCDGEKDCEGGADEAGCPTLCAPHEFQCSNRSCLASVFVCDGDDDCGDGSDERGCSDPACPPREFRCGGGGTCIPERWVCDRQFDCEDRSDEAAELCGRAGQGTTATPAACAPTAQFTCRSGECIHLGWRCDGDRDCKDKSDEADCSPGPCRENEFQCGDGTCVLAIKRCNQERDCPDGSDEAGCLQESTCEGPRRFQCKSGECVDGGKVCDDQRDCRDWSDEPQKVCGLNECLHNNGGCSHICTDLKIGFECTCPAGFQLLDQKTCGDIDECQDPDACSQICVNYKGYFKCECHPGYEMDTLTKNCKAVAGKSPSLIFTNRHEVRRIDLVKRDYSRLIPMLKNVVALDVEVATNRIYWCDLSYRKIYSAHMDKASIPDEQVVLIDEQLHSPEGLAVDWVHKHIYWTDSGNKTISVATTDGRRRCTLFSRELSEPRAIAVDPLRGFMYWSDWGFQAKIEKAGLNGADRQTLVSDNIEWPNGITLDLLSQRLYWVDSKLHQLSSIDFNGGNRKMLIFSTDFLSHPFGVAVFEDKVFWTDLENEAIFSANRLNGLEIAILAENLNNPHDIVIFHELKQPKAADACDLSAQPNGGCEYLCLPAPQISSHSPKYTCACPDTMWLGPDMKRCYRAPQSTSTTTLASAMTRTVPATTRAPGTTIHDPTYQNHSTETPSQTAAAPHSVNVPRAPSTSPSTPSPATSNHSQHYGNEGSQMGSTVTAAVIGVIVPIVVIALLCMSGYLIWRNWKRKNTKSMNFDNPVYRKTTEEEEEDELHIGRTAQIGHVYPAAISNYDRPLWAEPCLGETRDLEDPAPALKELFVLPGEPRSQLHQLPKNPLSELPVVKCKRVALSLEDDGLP

Key:
[1] = target: SOST^loop2m (I94A, G95A, R96A, K98A, W99A) (UniProt Q99P68); assay: co-IP; in RAW264.7 macrophages; which partner was precipitated is not told
[2] = target: wild-type SOST (co-immunoprecipitation in RAW264.7) (UniProt Q99P68); assay: as above
[3] = target: full-length His-sclerostin (not stated (recombinant human and mouse sclerostin used in the paper)) (UniProt Q99P68); assay: pull-down; His-tagged sclerostin or loop peptide (6 µg) on Ni-NTA magnetic agarose beads, incubated with 500 µL RAW264.7 cell lysate supernatant overnight at 4 °C; PBS, 20 mM imidazole, pH 8.0; washes with 0.005% Tween 20; blot with anti-FLAG and anti-His; only the target purified
[4] = target: SOST-S5 (V97A, K98A, W99A) (UniProt Q99P68); assay: as above
[5] = target: SOST-S4 (I94A, G95A, R96A) (UniProt Q99P68); assay: as above

| Substance | binding [1] | binding [2] | binding [3] | binding [4] | binding [5] |
| --- | --- | --- | --- | --- | --- |
| ApoER2 (co-immunoprecipitation in RAW264.7) (from UniProt Q924X6 29-996) (receptor) | no binding | binds | – | – | – |
| FLAG-ApoER2 (from UniProt Q924X6 29-996) (receptor) | – | – | binds | binds | binds |
